This note sets out measurements from patent US20160032001A1 (APEXIGEN, published 2016).

Assay [1] has as its target T1, human RANKL protein (human, UniProt O14788 140-317, limits assumed).
T1 sequence (looked up): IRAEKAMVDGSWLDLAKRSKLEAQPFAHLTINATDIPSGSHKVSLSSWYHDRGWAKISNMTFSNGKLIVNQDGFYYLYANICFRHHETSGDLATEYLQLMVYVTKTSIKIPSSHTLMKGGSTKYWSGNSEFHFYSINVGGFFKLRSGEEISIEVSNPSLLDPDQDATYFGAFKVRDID
As to the kind of experiment: surface plasmon resonance.

The target in assay [2] is T2, RANKL expressed on the surface of 293 cells (UniProt O14788).
T2 sequence (looked up): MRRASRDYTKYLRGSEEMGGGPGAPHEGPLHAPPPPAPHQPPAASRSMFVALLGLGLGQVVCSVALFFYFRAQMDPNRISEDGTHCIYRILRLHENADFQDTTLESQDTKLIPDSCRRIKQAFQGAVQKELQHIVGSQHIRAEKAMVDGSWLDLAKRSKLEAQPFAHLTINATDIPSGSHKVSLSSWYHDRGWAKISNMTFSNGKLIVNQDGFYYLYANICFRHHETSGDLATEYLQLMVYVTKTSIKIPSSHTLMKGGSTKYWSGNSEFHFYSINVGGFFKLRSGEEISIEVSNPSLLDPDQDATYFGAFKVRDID
Kind of assay: flow cytometry, RANKL-transfected 293 cells. On the technique in general: Flow cytometry measures light scatter and fluorescence of single cells or particles in a stream.

The target of assay [3] is T1, human RANKL protein. Kind of assay: ELISA on RANKL protein. On the technique in general: ELISA stands for enzyme-linked immunosorbent assay.
Assay [4] deals with T2, RANKL expressed on the surface of 293 cells. As to the kind of experiment: binding to RANKL-transfected 293 cells (FIG. 6).
For assay [5], the target named is T1, human RANKL protein. Kind of assay: ELISA on RANKL protein (FIG. 12).

Results are given in words; binding and its absence hold for the method and conditions named. Some results given as binding are weak or reduced against the parent protein; the word gives no strength.

B1: clone 23 rabbit anti-RANKL antibody (antibody, V domains shown)
VH: QEQLKESGGGLVTPGGTLTLTCTASGFSLSSDGMSWVRQAPGKGLEWIGYIYSGSSPYYANWAKGRFTISKTSSTTVDLKMTSLTTEDTATYFCARHGSGGGWYLDIWGPGTLVTVSS
VL: AYDMIQTPASVEVAVGGTVTINCQASQTIGTNLAWYQQKPGQRPKLLIYAASTLPSGVSSRFKGSGSGTQFTLTISDVECSDAATYYCQQAYSVGNVDNAFGGGTEVVVK
notes: also called RabMAb 23; parent 23 rabbit antibody
In the case of B1, the binding result (in the assay with human RANKL protein [1]; in assay [2]) was “binds” each time.

B2: clone 565 rabbit anti-RANKL antibody (antibody, V domains shown)
VH: QEDLKESGGGLITPGGTLTLTCTGSGFSLSSDGMSWVRQAPGKGLEWIGYIYSGSSPYYANWAKGRFTISKTSSTTVDLKMTSLTTEDTATYFCARHLSGGGWYLDIWGPGTLVTVSL
VL: DMIQTPASVSEPVGGTVTINCQASQNIGSNLAWYQQKPGQPSKLLIYKASTLASGVPSRFKGSGSGTDFTLTISDLECADAATYYCQQAYTISNVDNAFGGGTEVVVK
Turning to B2, the binding entry in assay [2] is “binds”.

B3: clone EBI-51-22 rabbit anti-RANKL antibody (antibody, V domains shown)
VH: QSVEESGGRLVTPGTLLTLTCTVSGFSLSTDVLSWVRQAPGKGLEWIGYTWSGGSTYYASWAKGRFTISKTSSTTVDLKITSPTTEDTATYFCARGFNPFDPWGPGTLVTVSS
VL: DMTQTPASVSDPVGGTVTIKCQASQNIGSNLAWYQQKPGQRPKLLIYRASTLASGVSSRFKGSGSGTQFTLTISDLECADAATYYCQQGYSAGNVDNNAFGGGTEVVVK
Regarding B3, the binding result (in the assay with human RANKL protein [1]; in assay [2]) was “binds” throughout.

B4: clone EBI-51-1 rabbit anti-RANKL antibody (antibody, V domains shown)
VH: QEQLEESGGGLVKPEGSLTLTCTASGFDLSTYYYMCWVRQAPGKGLEWIACIYTGRASTYYATWAKGRFTISKTSSTTVTLQMTSLTAADTATFFCASKAGDIWYYGMDLWGPGTLVTVSS
VL: DMTQTPASVSEPVGGTVTIKCQASQNIGSNLAWYQQKPGQRPKLLIYRASTLASGVSSRFKGSGSGTQFTLTISDLECADAATYYCQQGYSAGNVDNNTFGGGTEVVVK
For B4, the binding entry in assay [2] is reported as “binds”.

B5: clone EBI-51-2 rabbit anti-RANKL antibody (antibody, V domains shown)
VH: QSLEESGGRLVTPGTPLTLTCTASGFTISTDVISWVRQAPGKGLEWIGYTWSGGSTYYANWAKGRFTLSKTSSTTVDLKITSPTIEDTATYFCARGFNPFDPWGPGTLVTVSS
VL: DMIQTPASVSEPVGGTVTIVCQASQNIGSNFAWYQQKPGQPPKLLIYRASTLASGVSSRFKGSGFGTQFTLTISDLECADAATYYCQQGYSAGNVDNNFGGGTEVVVK
Regarding B5, in assay [2], the binding entry is “binds”.

B6: clone EBI-51-4 rabbit anti-RANKL antibody (antibody, V domains shown)
VH: QSVEESGGRLVKPGESLTLTCTASGFSLSSDVISWVRQAPGKGLEWIGYGWSGGPTYYANWAKGRFTISKTSSTTVDLKITSPTTEDTATYFCARGFNPFDPWGPGTLVTVSS
VL: DMTQTPASVSEPVGGTVTIKCQASQNIGSNLAWYQQKPGQRPKLLIYRASTLASGVSSRFKGSGSGTQFTLTISDLECADAATYYCQQGYSAGNVDNSFGGGTEVVVK
For the molecule B6, the binding entry in assay [2] is “binds”.

B7: humanized clone 23 antibody, VH 23HZD-1 HC with humanized VL 23 Vkb, IgG1 (antibody, V domains shown)
VH: EVQLVESGGGLVQPGGSLRLSCAASGFSLSSDGMSWVRQAPGKGLEWIGYIYSGSSPYYANWAKGRFTISKDSSKNTVYLQMNSLRAEDTAVYFCARHGSGGGWYLDIWGPGTLVTVSS
VL: DIQMTQSPSSLSASVGDRVTINCQASQSIGSNLAWYQQKPGKRPKLLIYAASTLPSGVPSRFSGSGSGTDFTLTISSLQPEDFATYYCQQAYSVGNVDNAFGGGTKVEIK
notes: also called h23 IgG1
Regarding B7, the binding entry in the assay with human RANKL protein [3] is “binds”.

B8: humanized clone 23 antibody, VH 23HZD-1 HC with humanized VL 23 Vk (antibody, V domains shown)
VH: EVQLVESGGGLVQPGGSLRLSCAASGFSLSSDGMSWVRQAPGKGLEWIGYIYSGSSPYYANWAKGRFTISKDSSKNTVYLQMNSLRAEDTAVYFCARHGSGGGWYLDIWGPGTLVTVSS
VL: DIQMTQSPSSLSASVGDRVTINCQASQTIGTNLAWYQQKPGKRPKLLIYAASTLPSGVPSRFSGSGSGTDFTLTISSLQPEDFATYYCQQAYSVGNVDNAFGGGTKVEIK
notes: also called humanized 23 Vk; 23LHZD
For B8, the binding result in assay [4] is reported as “binds”.

B9: h23n IgG2 humanized clone 23 antibody (antibody, V domains shown)
VH: QEQLVESGGGLVQPGGSLRLSCVASGFSLSSDGMSWVRQAPGKGLEWIGYIYSGSSPYYANWAKGRFTISKDSSTNTVFLQMNSLRAEDTAVYFCARHGDGGGWYLDIWGPGTLVTVSS
VL: DIQMTQSPSSLSASVGDRVTINCQASQSIGSNLAWYQQKPGKAPKLLIYAASTLPSGVSSRFSGSGSGTDFTLTINSLEAEDAATYYCQQAYSVGNVDNAFGGGTKVEIK
notes: IgG2; also called h23n VH and VL
Turning to B9, the binding entry with human RANKL protein [3] and in the assay with human RANKL protein [5] was “binds” each time.

B10: humanized clone 23 antibody, VH 23HZD-1 HC with humanized VL 23 Vkb, IgG2 (antibody, V domains shown)
VH: EVQLVESGGGLVQPGGSLRLSCAASGFSLSSDGMSWVRQAPGKGLEWIGYIYSGSSPYYANWAKGRFTISKDSSKNTVYLQMNSLRAEDTAVYFCARHGSGGGWYLDIWGPGTLVTVSS
VL: DIQMTQSPSSLSASVGDRVTINCQASQSIGSNLAWYQQKPGKRPKLLIYAASTLPSGVPSRFSGSGSGTDFTLTISSLQPEDFATYYCQQAYSVGNVDNAFGGGTKVEIK
notes: also called humanized 23 vkb; humanized 23 VKB
In the case of B10, the binding result (with human RANKL protein [3]; in assay [4]) was “binds” in each case.

B11: clone 408 rabbit anti-RANKL antibody (antibody, V domains shown)
VH: QSVEESGGRLVTPGTPLTLTCTVSGFSLSTDVVSWVRQAPGKGLEWIGYTWNGGATFYASWAKGRFTFSKTSTTVDLKITSPTTEDTATYFCARGYNGMDPWGPGTLVTVSS
VL: DMTQTPASVEAAVGGAVTIKCQASQNIGSNLAWYHQKPGQPPKLLISKASTLASGVPSRFKGSGSGTEFTLAISDLECADAATYYCQQGYTTKNVVNPFGGGTEVVVK
In the case of B11, the binding entry (with human RANKL protein [1]; in assay [2]) was “binds” throughout.

B12: clone 147 rabbit anti-RANKL antibody (antibody, V domains shown)
VH: QSVEESGGRLVTPGTPQTLTCTVSGFSLSTDVVSWVRQAPGKGLEWIGYTWNGGATYYASWAKGRFTFSKTSTTVDLKITSPTTEDTATYFCARGYNGMDPWGPGTLVTVSS
VL: DMTQTPASVEVAVGGTVTIKCQASQNIGSNLAWYQQKPGQPPKLLISKASTLASGVPSRFKGSGSGTEFTLAISDLECADAATYYCQQGYTTKNVVNPFGGGTEVVVK
In the case of B12, in assay [2], the binding entry is listed as “binds”.

B13: clone 447 rabbit anti-RANKL antibody (antibody, V domains shown)
VH: QEQLKESGGGLVTPGGILTLTCTASGFSLRSNAMSWVRQAPGKGLEWIGYIYPGGAPHYASWAKGRFTISRNSTTVDLKMTSLTTEDTATYFCARHVSGGGWYLDIWGPGTLVTVSL
VL: DMIQTPASVEVGVGGTVTINCQASQNIGSNLAWYQQKPGQPPKFLIYGASTLASGVSSRFKGSGSGTRFTFTISDVECTDAATYYCQQAYSVGNVDNAFGGGTEVVVK
B13: in assay [2], the binding result is “binds”.

B14: clone 174 rabbit anti-RANKL antibody (antibody, V domains shown)
VH: QEQLQESGGGLITPGGTLTLTCTASGFSFNRNALSWVRQAPGKGLEWIGYIYSGGSPYYANWAKGRFNVSRTSTTVDLRMTSLTTEDTATYFCARHVSGGGWYLDIWGPGTLVTVSL
VL: DMIQTPASVEVAVGGTVTINCQASQNIGSNLAWYQQKPGQPPKLLIYGTSTLASGVSSRFKGSGFGTQFTFTISDVECTDAATYYCQQAYSISNVDNAFGGGTEVVVK
For the molecule B14, the binding entry in assay [2] is on record as “binds”.

B15: clone 68 rabbit anti-RANKL antibody (antibody, V domains shown)
VH: QEQLKESGGGLVKPDESLTLTCTASGFSLSSNGMSWARQAPGKGLEWIGYIYAGSSPYYANWAKGRFTISKTSSTTVDLKVTSLTTEDTATYFCARHASGGGWYLAIWGPGTLVTVSL
VL: DMIQTPASVEVAVGGTVTIGCQASQSIGSNLGWYQQKPGQPPKLLIYSASTLASGVSSRFKGSGSGTEFTLTISDVECDDAATYYCQQAYSVSNVDNAFGGGTEVVVK
Regarding B15, the binding result in assay [2] is reported as “binds”.

B16: clone EBI-51-23 rabbit anti-RANKL antibody (antibody, V domains shown)
VH: QSVKESEGGLFKPTDTLTLTCTVSGFSLSIYEISWVRQAPGKELEWIGYIGVGGVTYYANWAKSRSTITRNTNQKMVALKMTSLTAADTATYFCARGYNPFDLWGPGTLVTVSS
VL: DMTQTPASVEVAVGGTVTINCQASQNIGSNLAWYQQKPGQPPKLLIYKASTLASGVPSRLKGSGSGTEFTLTISGVQCDDAATYYCQQGYTTGNVDNPFGGGTEVVVK
Take B16: in assay [2], the binding entry is “binds”.

B17: clone 476 rabbit anti-RANKL antibody (antibody, V domains shown)
VH: QSLEESGGGLVQPEGSPTLTCTAYLIDFSRYGYMCWVRQAPGKGLEWIGCIHAGRSGRTYYANWAKGRFTISKTSSTTVTLQMTSLTAADTATYFCAKSGDSYVGYFALWGPGTLVTVSS
VL: DIVMTQTPASVEAAVGGTVTIKCQASENIYNYLSWYQQKPGQPPKLLIYEASKLASGVSSRFKGSGSGTEFTLTISDLECADAATYYCQSYYDVTSHSYDNPFGGGTEVVVS
For the molecule B17, the binding result in assay [2] is recorded as “binds”.

B18: humanized clone 408 anti-RANKL antibody (antibody, V domains shown)
VH: EVQLVESGGGLVQPGGSLRLSCAVSGFSLSTDVVSWVRQAPGKGLEWIGYTWNGGATFYASWAKGRFTFSKDSSKNTVYLQMNSPRAEDTAVYFCARGYNGMDPWGPGTLVTVSS
VL: DIQMTQSPSSLSASVGDRVTIKCQASQNIGSNLAWYQQKPGKPPKLLISKASTLASGVPSRFSGSGSGTDFTLTISSLQPEDFATYYCQQGYTTKNVVNPFGGGTKVEIK
On to B18, for which the binding entry in assay [4] is “binds”.
